No constants are given. Whether binding was seen depends on the method and setting. Binding seen in cells or lysates may run through a third protein. These calls come from enrichment with a bait or labelling near it, and not all partners need be listed. Where a sequence is shown, tags or fusion partners need not be part of it.
Target: T1, recombinant mouse Raptin protein with a His-tag (mouse)
T1 sequence: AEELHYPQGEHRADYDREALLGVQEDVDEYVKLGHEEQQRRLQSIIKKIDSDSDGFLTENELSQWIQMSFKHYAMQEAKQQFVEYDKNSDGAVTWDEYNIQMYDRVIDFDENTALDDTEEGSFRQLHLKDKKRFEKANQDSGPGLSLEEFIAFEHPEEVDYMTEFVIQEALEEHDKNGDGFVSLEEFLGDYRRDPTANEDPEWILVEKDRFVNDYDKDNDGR
Experiment: affinity purification with mass spectrometry; His-Raptin incubated with cell lysate of hypothalamic GT1-7 neurons 2 h at room temperature; captured with anti-His antibody on protein A/G magnetic beads, 4 °C overnight; SDS-PAGE gel used for MS; only the target purified

Protein sequences, listed by entry. Tags and fused reporters are not part of them. Residues count along the entry.
UniProt Q9QYS2, residues 23-879: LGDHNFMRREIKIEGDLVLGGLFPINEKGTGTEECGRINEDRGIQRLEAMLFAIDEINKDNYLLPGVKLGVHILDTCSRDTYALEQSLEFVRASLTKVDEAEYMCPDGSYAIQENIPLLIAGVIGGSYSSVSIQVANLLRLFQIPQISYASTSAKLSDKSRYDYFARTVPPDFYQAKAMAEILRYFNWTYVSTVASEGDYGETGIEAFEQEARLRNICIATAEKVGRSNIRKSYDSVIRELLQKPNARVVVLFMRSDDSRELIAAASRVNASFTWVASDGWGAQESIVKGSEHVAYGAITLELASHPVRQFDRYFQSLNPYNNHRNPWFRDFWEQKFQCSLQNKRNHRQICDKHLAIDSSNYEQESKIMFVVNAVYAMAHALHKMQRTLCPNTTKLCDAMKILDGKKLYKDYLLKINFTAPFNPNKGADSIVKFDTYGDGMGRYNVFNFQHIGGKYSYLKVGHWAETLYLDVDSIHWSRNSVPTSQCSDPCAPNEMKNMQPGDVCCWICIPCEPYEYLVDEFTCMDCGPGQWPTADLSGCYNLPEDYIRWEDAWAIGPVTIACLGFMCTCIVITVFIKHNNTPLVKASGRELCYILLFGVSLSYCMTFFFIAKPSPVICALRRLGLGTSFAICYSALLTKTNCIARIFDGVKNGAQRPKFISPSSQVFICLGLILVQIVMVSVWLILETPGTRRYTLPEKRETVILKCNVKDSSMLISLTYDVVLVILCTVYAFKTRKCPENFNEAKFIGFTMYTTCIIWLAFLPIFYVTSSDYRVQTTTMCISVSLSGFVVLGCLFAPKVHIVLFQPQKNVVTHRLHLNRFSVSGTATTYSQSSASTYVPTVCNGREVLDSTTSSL

binding: binds
Substance: glutamate metabotropic receptor 3 (GRM3), endogenous (from UniProt Q9QYS2 23-879)
